Laboratory results from paper PMC5249188.
Results are given in words; binding and its absence hold for the method and conditions named. Binding seen in cells or lysates may run through a third protein. Some results given as binding are weak or reduced against the parent protein; the word gives no strength.

Sequences of proteins named here, by UniProt entry; tags and fusion partners are left off.
UniProt Q62406: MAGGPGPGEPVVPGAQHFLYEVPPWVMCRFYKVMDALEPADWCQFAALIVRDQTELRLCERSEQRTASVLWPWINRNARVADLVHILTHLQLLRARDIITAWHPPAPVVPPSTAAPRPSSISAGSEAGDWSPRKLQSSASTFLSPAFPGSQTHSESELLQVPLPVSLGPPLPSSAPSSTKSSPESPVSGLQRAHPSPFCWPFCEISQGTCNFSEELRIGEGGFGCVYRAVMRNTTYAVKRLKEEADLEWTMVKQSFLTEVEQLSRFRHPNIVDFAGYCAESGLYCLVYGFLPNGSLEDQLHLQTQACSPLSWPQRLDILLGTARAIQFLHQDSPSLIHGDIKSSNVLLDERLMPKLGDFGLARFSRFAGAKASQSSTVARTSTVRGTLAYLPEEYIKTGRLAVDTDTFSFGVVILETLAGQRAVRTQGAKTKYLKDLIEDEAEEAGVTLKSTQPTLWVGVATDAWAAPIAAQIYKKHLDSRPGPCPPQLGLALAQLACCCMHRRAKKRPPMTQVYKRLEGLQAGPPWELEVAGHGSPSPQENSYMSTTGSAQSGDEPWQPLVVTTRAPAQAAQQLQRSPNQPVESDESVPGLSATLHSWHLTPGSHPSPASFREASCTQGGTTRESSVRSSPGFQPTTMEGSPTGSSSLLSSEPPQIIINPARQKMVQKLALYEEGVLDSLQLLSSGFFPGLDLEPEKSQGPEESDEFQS

Columns and labels:
[1] = target: T1, tumor necrosis factor receptor associated factor-6 (mouse (endogenous in liver)) (UniProt P70196); assay: co-IP; liver tissue lysates of LPS-injected (1 ug/g body weight, 6 h) NS5A-transgenic mice in NET-N buffer; anti-TRAF6 antibody and protein A-Sepharose overnight; immunoblot with anti-IRAK1 and anti-TRAF6
T1 sequence: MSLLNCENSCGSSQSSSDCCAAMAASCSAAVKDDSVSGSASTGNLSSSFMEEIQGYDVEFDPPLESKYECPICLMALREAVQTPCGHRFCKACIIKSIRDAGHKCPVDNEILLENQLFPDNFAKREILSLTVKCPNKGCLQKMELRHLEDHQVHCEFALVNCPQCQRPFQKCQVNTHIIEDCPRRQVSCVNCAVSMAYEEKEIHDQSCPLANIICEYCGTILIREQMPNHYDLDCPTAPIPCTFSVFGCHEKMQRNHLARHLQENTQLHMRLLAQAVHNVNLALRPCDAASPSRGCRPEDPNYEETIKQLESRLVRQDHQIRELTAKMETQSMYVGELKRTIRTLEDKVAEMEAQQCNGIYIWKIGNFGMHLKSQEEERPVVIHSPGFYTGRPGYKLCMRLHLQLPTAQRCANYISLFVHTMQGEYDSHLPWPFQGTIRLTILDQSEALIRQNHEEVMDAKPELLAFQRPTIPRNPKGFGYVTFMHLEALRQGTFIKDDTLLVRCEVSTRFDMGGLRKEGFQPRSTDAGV

[2] = target: T1, tumor necrosis factor receptor associated factor-6 (mouse (endogenous in liver)); assay: co-IP; liver tissue lysates of LPS-injected (1 ug/g body weight, 6 h) non-transgenic mice in NET-N buffer (20 mM Tris-HCl pH 8.0, 100 mM NaCl, 1 mM EDTA, 0.5% NP-40); anti-TRAF6 antibody and protein A-Sepharose overnight; immunoblot with anti-IRAK1 and anti-TRAF6
[3] = target: T1, tumor necrosis factor receptor associated factor-6 (mouse (endogenous in liver)); assay: condition: only saline-injected mice (without LPS stimulation); co-IP; liver tissue lysates of saline-injected (no LPS) NS5A-transgenic and non-transgenic mice in NET-N buffer; anti-TRAF6 antibody and protein A-Sepharose overnight; immunoblot with anti-IRAK1 and anti-TRAF6

**Q.** Which results are given for “interleukin-1 receptor-associated kinase-1 (from UniProt Q62406 1-710)”?
**A.** binding [1]: binds weakly; binding [2]: binds; binding [3]: no binding
